Test results: publication PMC7442838
Results are given in words; binding and its absence hold for the method and conditions named. Binding seen in cells or lysates may run through a third protein. For some assays here: Binding calls can cover weak binding; strength is not graded here. Where a sequence is shown, tags or fusion partners need not be part of it.

How the values were obtained:
[1] = molecular target: T1, TMEM59-Myc (full length TMEM59, Myc-tagged) (human) (UniProt Q9BXS4); experiment: co-IP; BV2 cells co-transfected for 24 h with Myc- and GFP-tagged plasmids; NP-40 lysis buffer (25 mM Tris-HCl pH 7.6, 150 mM NaCl, 1 mM EDTA, 1% Nonidet P-40); immunoprecipitation with antibodies against Myc or GFP or control mouse IgG and Protein G Agarose overnight; immunoblot for Myc or GFP
T1 sequence: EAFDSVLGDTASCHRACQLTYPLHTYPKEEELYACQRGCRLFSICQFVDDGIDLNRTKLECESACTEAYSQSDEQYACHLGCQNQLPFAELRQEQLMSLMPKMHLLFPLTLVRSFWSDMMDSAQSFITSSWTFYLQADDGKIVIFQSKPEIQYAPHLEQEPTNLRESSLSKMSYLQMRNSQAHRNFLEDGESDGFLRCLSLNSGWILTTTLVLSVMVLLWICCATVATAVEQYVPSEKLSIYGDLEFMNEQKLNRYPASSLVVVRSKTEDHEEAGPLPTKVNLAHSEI

[2] = molecular target: T2, TMEM59-GFP (full length TMEM59, GFP-tagged) (human) (UniProt Q9BXS4); experiment: as above
T2 sequence: T1 sequence

Substance	binding [1]	binding [2]
TREM2-CTF-GFP (TREM2 C-terminal fragment) (domain or fragment)	binds	
TREM2-NTF-Myc (TREM2 N-terminal fragment) (domain or fragment)		no binding
